Data source: PubChem BioAssay AID1508597 (Cure First, 2020)
In all, the deposit lists about 2,100 reagents; below is a random part of them. 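Calls flag viability under 80% in either arm, not effects specific to rucaparib; the reference for percent is not stated.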 Not stated in the record: the 100% reference.

Purpose: 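Knock-downs altering ovarian cancer cell survival with or without PARP inhibitor rucaparib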 (primary screen)
Cells: human ovarian carcinoma lines grown from tumours: OCI-P5x (papillary serous) and OCI-C5x (clear cell)
Reagent: siRNA pool against human genes, 1.25 pmol siRNA per well
Time to read-out: 72 h or 96 h, depending on the cell culture
Conditions: rucaparib 20 µM (about IC30) or vehicle, present until read-out
Read-out: 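Luminescent ATP-based viability assay read 72 or 96 h after transfection, depending on culture, given as normalised percent viability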
Direction: viability, normalised: higher = more viable cells remaining
Rule for the call: 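a well counts as a hit if its normalised viability is under 80 percent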
Meaning of the calls: active = viability under 80%; inactive = viability 80% or more

RDM1 (GeneID 201299), rucaparib or vehicle Rucaparib, cell line OCI-C5x (clear cell), technical replicate 1 — viability, normalised (%) = 40.9; outcome = active
RDM1 (GeneID 201299), rucaparib or vehicle Rucaparib, cell line OCI-C5x (clear cell), technical replicate 2 — viability, normalised (%) = 57.6; outcome = active
RDM1 (GeneID 201299), rucaparib or vehicle Rucaparib, cell line OCI-C5x (clear cell), technical replicate 3 — viability, normalised (%) = 50.9; outcome = active
RDM1 (GeneID 201299), rucaparib or vehicle Rucaparib, cell line OCI-P5x (serous), technical replicate 1 — viability, normalised (%) = 53.7; outcome = active
RDM1 (GeneID 201299), rucaparib or vehicle Rucaparib, cell line OCI-P5x (serous), technical replicate 2 — viability, normalised (%) = 54.4; outcome = active
RDM1 (GeneID 201299), rucaparib or vehicle Rucaparib, cell line OCI-P5x (serous), technical replicate 3 — viability, normalised (%) = 62.7; outcome = active
RDM1 (GeneID 201299), rucaparib or vehicle Vehicle, cell line OCI-C5x (clear cell), technical replicate 1 — viability, normalised (%) = 49.2; outcome = active
RDM1 (GeneID 201299), rucaparib or vehicle Vehicle, cell line OCI-C5x (clear cell), technical replicate 2 — viability, normalised (%) = 42.9; outcome = active
RDM1 (GeneID 201299), rucaparib or vehicle Vehicle, cell line OCI-C5x (clear cell), technical replicate 3 — viability, normalised (%) = 49.9; outcome = active
RDM1 (GeneID 201299), rucaparib or vehicle Vehicle, cell line OCI-P5x (serous), technical replicate 1 — viability, normalised (%) = 45.6; outcome = active
RDM1 (GeneID 201299), rucaparib or vehicle Vehicle, cell line OCI-P5x (serous), technical replicate 2 — viability, normalised (%) = 57.9; outcome = active
RDM1 (GeneID 201299), rucaparib or vehicle Vehicle, cell line OCI-P5x (serous), technical replicate 3 — viability, normalised (%) = 52.9; outcome = active
TINF2 (GeneID 26277), rucaparib or vehicle Rucaparib, cell line OCI-C5x (clear cell), technical replicate 1 — viability, normalised (%) = 45.8; outcome = active
TINF2 (GeneID 26277), rucaparib or vehicle Rucaparib, cell line OCI-C5x (clear cell), technical replicate 2 — viability, normalised (%) = 57.2; outcome = active
TINF2 (GeneID 26277), rucaparib or vehicle Rucaparib, cell line OCI-C5x (clear cell), technical replicate 3 — viability, normalised (%) = 45.1; outcome = active
TINF2 (GeneID 26277), rucaparib or vehicle Rucaparib, cell line OCI-P5x (serous), technical replicate 1 — viability, normalised (%) = 52; outcome = active
TINF2 (GeneID 26277), rucaparib or vehicle Rucaparib, cell line OCI-P5x (serous), technical replicate 2 — viability, normalised (%) = 65; outcome = active
TINF2 (GeneID 26277), rucaparib or vehicle Rucaparib, cell line OCI-P5x (serous), technical replicate 3 — viability, normalised (%) = 53.4; outcome = active
TINF2 (GeneID 26277), rucaparib or vehicle Vehicle, cell line OCI-C5x (clear cell), technical replicate 1 — viability, normalised (%) = 76.3; outcome = active
TINF2 (GeneID 26277), rucaparib or vehicle Vehicle, cell line OCI-C5x (clear cell), technical replicate 2 — viability, normalised (%) = 62; outcome = active
TINF2 (GeneID 26277), rucaparib or vehicle Vehicle, cell line OCI-C5x (clear cell), technical replicate 3 — viability, normalised (%) = 47.7; outcome = active
TINF2 (GeneID 26277), rucaparib or vehicle Vehicle, cell line OCI-P5x (serous), technical replicate 1 — viability, normalised (%) = 57.1; outcome = active
TINF2 (GeneID 26277), rucaparib or vehicle Vehicle, cell line OCI-P5x (serous), technical replicate 2 — viability, normalised (%) = 56.6; outcome = active
TINF2 (GeneID 26277), rucaparib or vehicle Vehicle, cell line OCI-P5x (serous), technical replicate 3 — viability, normalised (%) = 42.9; outcome = active
MBD2 (GeneID 8932), rucaparib or vehicle Rucaparib, cell line OCI-C5x (clear cell), technical replicate 1 — viability, normalised (%) = 52.6; outcome = active
MBD2 (GeneID 8932), rucaparib or vehicle Rucaparib, cell line OCI-C5x (clear cell), technical replicate 2 — viability, normalised (%) = 37.3; outcome = active
MBD2 (GeneID 8932), rucaparib or vehicle Rucaparib, cell line OCI-C5x (clear cell), technical replicate 3 — viability, normalised (%) = 38; outcome = active
MBD2 (GeneID 8932), rucaparib or vehicle Rucaparib, cell line OCI-P5x (serous), technical replicate 1 — viability, normalised (%) = 57.4; outcome = active
MBD2 (GeneID 8932), rucaparib or vehicle Rucaparib, cell line OCI-P5x (serous), technical replicate 2 — viability, normalised (%) = 67; outcome = active
MBD2 (GeneID 8932), rucaparib or vehicle Rucaparib, cell line OCI-P5x (serous), technical replicate 3 — viability, normalised (%) = 79; outcome = active
MBD2 (GeneID 8932), rucaparib or vehicle Vehicle, cell line OCI-C5x (clear cell), technical replicate 1 — viability, normalised (%) = 51; outcome = active
MBD2 (GeneID 8932), rucaparib or vehicle Vehicle, cell line OCI-C5x (clear cell), technical replicate 2 — viability, normalised (%) = 44.8; outcome = active
MBD2 (GeneID 8932), rucaparib or vehicle Vehicle, cell line OCI-C5x (clear cell), technical replicate 3 — viability, normalised (%) = 39.2; outcome = active
MBD2 (GeneID 8932), rucaparib or vehicle Vehicle, cell line OCI-P5x (serous), technical replicate 1 — viability, normalised (%) = 65; outcome = active
MBD2 (GeneID 8932), rucaparib or vehicle Vehicle, cell line OCI-P5x (serous), technical replicate 2 — viability, normalised (%) = 70.1; outcome = active
MBD2 (GeneID 8932), rucaparib or vehicle Vehicle, cell line OCI-P5x (serous), technical replicate 3 — viability, normalised (%) = 66.2; outcome = active
